# Results reported in the supplement of paper PMC10735217.
# Values joined by “and” are separate entries in the source; they are usually repeats but may differ in a detail not shown here. Equal entries are not always repeated. This is one part of the list. Repeats in this data set agree poorly, so a single value says little.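 In a drug-repurposing library screen, luminescence reads luciferase driven by eight TEAD-binding elements, stably integrated into human kidney-derived cells. Compounds scoring over five robust Z scores above the plate mean are called hits.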
# Tested on: HEK293A TEAD-LUC reporter
# Assay: TEAD-luciferase reporter activity (YAP activation), robust Z score vs plate; higher = stronger YAP/TEAD activation
# Conditions: 24 h
SMILES,TEAD-luciferase reporter activity (compound concentration: 200 nM),TEAD-luciferase reporter activity (compound concentration: 2 uM),TEAD-luciferase reporter activity (compound concentration: 10 uM)
CCCc1c(OCCCOc2cc(NC(=O)c3nnn[nH]3)c(C)cc2Cl)ccc(C(C)=O)c1O,inactive: -0.971,inactive: -1.12,inactive: -0.263
COc1cccc(Nc2ncnn3ccc(CN4CC[C@@H](N)[C@H](O)C4)c23)c1,inactive: -1.51,inactive: -1.98,inactive: -2.32
CCCCc1ccc(C(N)=O)nc1 [Bupicomide],inactive: 0.693,inactive: 0.175,inactive: 1.1
C1COC(NC2CC3CCC2C3)=N1 (stereo unspecified),inactive: 0.156,inactive: 0.551,inactive: -1.11
CC(=O)c1cccc(NC(=O)Cn2c(-c3nonc3N)nc3ccccc32)c1,inactive: -0.631,inactive: -0.0489,inactive: -1.61
N#Cc1cc(-c2ccc(O)c(F)c2)cc2ccc(O)cc12,inactive: -0.277,inactive: -1.24,inactive: -0.299
CCCCCCCC(=O)N[C@H](CN1CCCC1)[C@H](O)c1ccc2c(c1)OCCO2 [Eliglustat (hemitartrate)],inactive: -0.315,inactive: -0.232,inactive: 1.04
c1ccc(Oc2cccnc2)cc1,inactive: -1.37,inactive: -0.782,inactive: -0.364
CC(C)OC(=O)[C@@H]1CC2=CC(=O)CC[C@]2(C)[C@H]2CC[C@@]3(C)[C@@H](CC[C@@]34CCC(=O)O4)[C@H]12 [dicire],inactive: -0.338,inactive: -0.742,inactive: -0.977
NC(=O)[C@@H]1CC[C@H](c2ccc(OCc3ccccc3F)cc2)N1,inactive: -0.528,inactive: -2.3,inactive: -1.24
Cc1nc2ccccc2c(-c2ccc3c4c(ccnc24)CCO3)c1[C@H](OC(C)(C)C)C(=O)O,inactive: -0.405,inactive: 1.6 and inactive: -0.66,inactive: 1.59
C[C@H](CCC(=O)O)[C@H]1CC[C@H]2[C@@H]3C[C@H](O)[C@@H]4C[C@H](O)CC[C@]4(C)[C@H]3CC[C@]12C,inactive: -0.237,inactive: 0.0567,inactive: 0.00673
COc1ccc(C2CC(=O)N(C(=O)NCc3cccnc3)N2C)cc1OC1CCCC1 (stereo unspecified),inactive: -1.89,inactive: -0.172,inactive: 0.193
C[C@@H]1CN(c2c(F)c(N)c3c(=O)c(C(=O)O)cn(C4CC4)c3c2F)C[C@H](C)N1 [sparfloxacin],inactive: -1.3,inactive: -0.583,inactive: 0.774
CCCCCCCCOc1ccccc1C(=O)Nc1ccc(C(=O)OCC[N+](C)(CC)CC)cc1 [otilonium bromide],inactive: -1.41,inactive: -2.49,inactive: -2.92
CO[C@H]1O[C@H](CNC(=O)N(CCCl)N=O)[C@@H](O)[C@H](O)[C@H]1O [Ranimustine],inactive: -0.828,inactive: -0.535,inactive: -0.454
Cc1ccc(C(=O)N(CCCN)C(c2nc3snc(C)c3c(=O)n2Cc2ccccc2)C(C)C)cc1 (stereo unspecified),inactive: -0.0928,inactive: -0.614,inactive: 1.1
CC(Nc1ccc(C#N)cc1Cl)C(C)(C)O (stereo unspecified),inactive: -0.236,inactive: -1.9,inactive: 0.255
COCCN1CCC(N(Cc2ccc(-c3ccc(C(F)(F)F)cc3)cc2)C(=O)c2ccco2)CC1,inactive: -0.575,inactive: 0.299,inactive: -0.066
O=C1NC2(CCN(C(=O)c3ccccc3)CC2)Oc2ccccc21,inactive: -2.35,–,inactive: 0.911
CCCC(O)(CC(=O)O)CC(=O)O,inactive: -1.46,inactive: -1.81,inactive: -1.46
CC[C@H](C)[C@@H]([C@@H](CC(=O)N1CCC[C@H]1[C@H](OC)[C@@H](C)C(=O)N[C@@H](Cc1ccccc1)c1nccs1)OC)N(C)C(=O)[C@@H](NC(=O)[C@H](C(C)C)N(C)C)C(C)C [Dolastatin 10],inactive: 4.38,inactive: 3.07,inactive: 4.8
COc1ccc(OC2CN(Cc3cccc4ccccc34)C2)cc1,inactive: 0.59,–,inactive: -1.07
O=C(/C=C/c1ccc(O)c(O)c1)c1ccc(O)cc1O,inactive: -1.26,inactive: -0.945,inactive: 1.23
OC(C1=NCCN1)(c1ccc(Cl)cc1)c1ccccn1 (stereo unspecified),inactive: -1.31,inactive: -0.127,inactive: 1.61
"C=CC(C)(O)CCC=C(C)C (single isomer, unassigned; (-)) [(-)-Linalool]",inactive: -2.7,inactive: -1.81,inactive: -1.35
O=C1c2ccccc2CN1C1CCN(Cc2ccccc2)CC1,inactive: -1.08,–,inactive: 0.197
CC(C)Oc1cc(-n2cnc3ccc(N[C@@H](C)c4ncc(F)cn4)nc32)n[nH]1,inactive: 1.21,inactive: -1.12,inactive: 0.619

# One compound at a time, as listed above. Values in the order: TEAD-luciferase reporter activity (compound concentration: 200 nM)	TEAD-luciferase reporter activity (compound concentration: 2 uM)	TEAD-luciferase reporter activity (compound concentration: 10 uM)
# `O=C1c2ccccc2CN1C1CCN(Cc2ccccc2)CC1` is listed as inactive: -1.08	–	inactive: 0.197
# `Cc1nc2ccccc2c(-c2ccc3c4c(ccnc24)CCO3)c1[C@H](OC(C)(C)C)C(=O)O` is listed as inactive: -0.405	inactive: 1.6 and inactive: -0.66	inactive: 1.59
